Reference: the supplement of paper PMC12819154, “High-throughput peptide-centric local stability assay extends protein–ligand identification to membrane proteins, tissues and bacteria” (Nature Structural & Molecular Biology, 2025)
The entries are a selection whose mix differs from that of the whole data set. Most values lie at the level of the controls, where differences are scatter.

By UniProt entry, the sequences of proteins in these tests, tags left out. Where a name states a change or a piece, a line headed by the entry shows the natural chain unless it says otherwise.
UniProt P30140: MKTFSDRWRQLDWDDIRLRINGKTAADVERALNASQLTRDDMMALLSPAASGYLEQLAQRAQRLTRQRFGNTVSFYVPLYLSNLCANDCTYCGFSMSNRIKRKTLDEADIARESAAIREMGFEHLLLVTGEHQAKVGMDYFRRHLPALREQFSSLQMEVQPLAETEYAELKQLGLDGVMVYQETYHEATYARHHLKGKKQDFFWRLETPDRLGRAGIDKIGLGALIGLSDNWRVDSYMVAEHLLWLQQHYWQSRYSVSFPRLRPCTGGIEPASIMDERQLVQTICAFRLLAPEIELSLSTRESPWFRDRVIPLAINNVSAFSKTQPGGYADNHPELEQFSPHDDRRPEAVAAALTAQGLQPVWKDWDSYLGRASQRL
UniProt P21361: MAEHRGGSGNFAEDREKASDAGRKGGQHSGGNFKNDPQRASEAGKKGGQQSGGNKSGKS
UniProt P27836: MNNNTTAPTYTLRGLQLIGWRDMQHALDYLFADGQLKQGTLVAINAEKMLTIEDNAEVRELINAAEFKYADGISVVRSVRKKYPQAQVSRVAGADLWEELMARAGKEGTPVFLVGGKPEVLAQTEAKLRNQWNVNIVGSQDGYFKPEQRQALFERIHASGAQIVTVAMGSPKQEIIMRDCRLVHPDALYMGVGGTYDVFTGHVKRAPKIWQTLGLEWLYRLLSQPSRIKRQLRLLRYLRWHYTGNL
UniProt P27242: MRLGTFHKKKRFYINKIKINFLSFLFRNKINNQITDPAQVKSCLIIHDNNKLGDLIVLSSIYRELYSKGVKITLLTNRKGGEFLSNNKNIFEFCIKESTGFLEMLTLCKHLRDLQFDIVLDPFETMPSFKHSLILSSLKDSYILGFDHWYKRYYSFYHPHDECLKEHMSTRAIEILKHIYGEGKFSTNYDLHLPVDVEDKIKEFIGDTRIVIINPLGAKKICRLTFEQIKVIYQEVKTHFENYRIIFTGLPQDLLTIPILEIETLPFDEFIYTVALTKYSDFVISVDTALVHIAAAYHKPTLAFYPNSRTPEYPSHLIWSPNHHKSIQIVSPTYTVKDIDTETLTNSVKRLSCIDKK
UniProt P24171: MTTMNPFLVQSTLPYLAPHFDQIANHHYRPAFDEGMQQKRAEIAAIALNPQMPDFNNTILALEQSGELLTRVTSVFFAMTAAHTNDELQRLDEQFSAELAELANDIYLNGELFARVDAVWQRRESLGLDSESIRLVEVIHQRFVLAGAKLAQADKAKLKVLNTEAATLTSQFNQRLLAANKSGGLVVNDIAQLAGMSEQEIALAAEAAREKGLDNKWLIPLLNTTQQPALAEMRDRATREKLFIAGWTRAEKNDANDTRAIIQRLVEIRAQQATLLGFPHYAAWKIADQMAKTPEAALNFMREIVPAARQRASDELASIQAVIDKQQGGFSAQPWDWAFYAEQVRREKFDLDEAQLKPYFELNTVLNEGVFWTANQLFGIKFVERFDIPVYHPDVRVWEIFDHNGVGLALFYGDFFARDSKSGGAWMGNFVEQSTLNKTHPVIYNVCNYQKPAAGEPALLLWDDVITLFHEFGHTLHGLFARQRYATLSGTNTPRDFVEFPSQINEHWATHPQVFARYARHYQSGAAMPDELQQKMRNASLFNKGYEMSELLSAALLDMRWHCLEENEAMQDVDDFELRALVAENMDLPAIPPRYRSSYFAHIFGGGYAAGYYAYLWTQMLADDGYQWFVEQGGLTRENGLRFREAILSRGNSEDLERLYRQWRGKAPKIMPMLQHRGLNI
UniProt P19930: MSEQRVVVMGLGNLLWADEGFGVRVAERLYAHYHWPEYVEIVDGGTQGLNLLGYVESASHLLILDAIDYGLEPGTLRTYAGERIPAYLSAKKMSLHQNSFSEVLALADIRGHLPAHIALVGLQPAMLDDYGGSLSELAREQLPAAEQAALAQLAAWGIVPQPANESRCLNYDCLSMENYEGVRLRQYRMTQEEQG
UniProt P24555: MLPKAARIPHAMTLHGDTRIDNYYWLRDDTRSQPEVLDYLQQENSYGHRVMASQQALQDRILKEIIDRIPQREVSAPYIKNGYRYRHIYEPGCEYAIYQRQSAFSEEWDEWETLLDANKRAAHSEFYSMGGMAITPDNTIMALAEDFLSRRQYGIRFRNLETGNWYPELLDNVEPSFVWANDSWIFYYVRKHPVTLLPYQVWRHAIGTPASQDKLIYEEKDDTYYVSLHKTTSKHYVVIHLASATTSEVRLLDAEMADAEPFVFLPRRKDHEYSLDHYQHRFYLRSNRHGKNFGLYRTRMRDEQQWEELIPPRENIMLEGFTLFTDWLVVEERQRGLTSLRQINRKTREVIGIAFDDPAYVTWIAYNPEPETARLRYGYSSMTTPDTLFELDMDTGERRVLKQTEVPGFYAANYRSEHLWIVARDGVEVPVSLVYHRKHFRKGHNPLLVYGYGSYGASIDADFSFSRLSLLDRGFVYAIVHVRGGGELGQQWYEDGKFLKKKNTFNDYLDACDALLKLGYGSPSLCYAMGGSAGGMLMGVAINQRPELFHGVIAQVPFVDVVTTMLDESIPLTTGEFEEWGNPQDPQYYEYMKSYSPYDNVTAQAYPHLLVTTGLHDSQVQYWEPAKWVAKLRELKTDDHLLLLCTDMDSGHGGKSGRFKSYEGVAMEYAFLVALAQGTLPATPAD
UniProt P26458: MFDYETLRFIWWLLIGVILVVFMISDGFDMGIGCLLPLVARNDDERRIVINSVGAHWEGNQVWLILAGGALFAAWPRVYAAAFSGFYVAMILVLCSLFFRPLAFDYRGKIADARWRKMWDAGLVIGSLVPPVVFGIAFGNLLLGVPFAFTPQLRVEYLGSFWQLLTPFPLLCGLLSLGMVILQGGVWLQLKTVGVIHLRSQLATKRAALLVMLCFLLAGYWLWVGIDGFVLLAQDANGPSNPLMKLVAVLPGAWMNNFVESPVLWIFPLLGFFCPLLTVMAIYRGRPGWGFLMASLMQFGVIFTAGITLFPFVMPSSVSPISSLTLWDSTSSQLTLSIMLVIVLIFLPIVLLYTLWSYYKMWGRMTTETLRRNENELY
UniProt P25737: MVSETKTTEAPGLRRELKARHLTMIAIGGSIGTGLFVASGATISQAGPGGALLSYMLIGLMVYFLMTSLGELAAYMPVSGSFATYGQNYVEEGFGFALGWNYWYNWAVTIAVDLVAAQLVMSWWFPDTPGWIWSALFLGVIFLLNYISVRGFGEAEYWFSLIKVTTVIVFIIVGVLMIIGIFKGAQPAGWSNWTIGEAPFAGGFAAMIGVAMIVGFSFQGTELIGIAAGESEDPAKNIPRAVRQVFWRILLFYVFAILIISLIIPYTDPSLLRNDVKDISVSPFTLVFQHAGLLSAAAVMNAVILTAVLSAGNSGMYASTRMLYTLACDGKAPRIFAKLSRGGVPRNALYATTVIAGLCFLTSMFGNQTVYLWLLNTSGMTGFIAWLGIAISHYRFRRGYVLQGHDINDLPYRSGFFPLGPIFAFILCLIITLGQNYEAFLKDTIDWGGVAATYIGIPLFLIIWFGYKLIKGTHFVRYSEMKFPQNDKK
UniProt P26648: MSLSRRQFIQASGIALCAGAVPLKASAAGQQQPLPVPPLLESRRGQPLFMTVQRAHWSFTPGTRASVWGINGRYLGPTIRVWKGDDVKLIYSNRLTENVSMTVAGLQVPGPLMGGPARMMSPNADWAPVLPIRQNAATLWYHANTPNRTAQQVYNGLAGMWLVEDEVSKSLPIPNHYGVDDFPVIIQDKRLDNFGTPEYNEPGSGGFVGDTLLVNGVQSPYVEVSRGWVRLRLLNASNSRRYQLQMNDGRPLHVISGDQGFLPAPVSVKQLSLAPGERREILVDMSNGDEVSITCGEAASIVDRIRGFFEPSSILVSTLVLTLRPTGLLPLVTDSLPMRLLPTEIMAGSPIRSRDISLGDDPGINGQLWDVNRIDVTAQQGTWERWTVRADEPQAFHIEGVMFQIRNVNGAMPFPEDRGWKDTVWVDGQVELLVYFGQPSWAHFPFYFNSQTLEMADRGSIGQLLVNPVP
UniProt P30749: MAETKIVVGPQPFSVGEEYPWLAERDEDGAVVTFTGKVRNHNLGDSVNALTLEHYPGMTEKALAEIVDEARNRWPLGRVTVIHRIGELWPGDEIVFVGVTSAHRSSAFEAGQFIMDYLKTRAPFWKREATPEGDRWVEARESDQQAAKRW
UniProt P23890: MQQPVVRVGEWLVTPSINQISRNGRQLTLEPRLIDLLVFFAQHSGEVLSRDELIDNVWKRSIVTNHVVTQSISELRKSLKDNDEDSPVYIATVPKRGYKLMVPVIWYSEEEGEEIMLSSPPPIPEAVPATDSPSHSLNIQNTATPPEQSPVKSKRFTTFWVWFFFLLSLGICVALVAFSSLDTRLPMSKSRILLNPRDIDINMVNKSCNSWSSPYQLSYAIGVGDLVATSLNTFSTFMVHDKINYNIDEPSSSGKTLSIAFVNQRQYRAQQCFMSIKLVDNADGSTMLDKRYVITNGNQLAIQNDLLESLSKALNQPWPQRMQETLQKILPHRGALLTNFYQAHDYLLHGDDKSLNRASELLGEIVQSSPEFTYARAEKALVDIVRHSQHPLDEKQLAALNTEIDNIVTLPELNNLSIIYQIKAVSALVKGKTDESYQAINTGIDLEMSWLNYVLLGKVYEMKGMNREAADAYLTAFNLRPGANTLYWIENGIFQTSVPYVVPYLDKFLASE
UniProt P19319: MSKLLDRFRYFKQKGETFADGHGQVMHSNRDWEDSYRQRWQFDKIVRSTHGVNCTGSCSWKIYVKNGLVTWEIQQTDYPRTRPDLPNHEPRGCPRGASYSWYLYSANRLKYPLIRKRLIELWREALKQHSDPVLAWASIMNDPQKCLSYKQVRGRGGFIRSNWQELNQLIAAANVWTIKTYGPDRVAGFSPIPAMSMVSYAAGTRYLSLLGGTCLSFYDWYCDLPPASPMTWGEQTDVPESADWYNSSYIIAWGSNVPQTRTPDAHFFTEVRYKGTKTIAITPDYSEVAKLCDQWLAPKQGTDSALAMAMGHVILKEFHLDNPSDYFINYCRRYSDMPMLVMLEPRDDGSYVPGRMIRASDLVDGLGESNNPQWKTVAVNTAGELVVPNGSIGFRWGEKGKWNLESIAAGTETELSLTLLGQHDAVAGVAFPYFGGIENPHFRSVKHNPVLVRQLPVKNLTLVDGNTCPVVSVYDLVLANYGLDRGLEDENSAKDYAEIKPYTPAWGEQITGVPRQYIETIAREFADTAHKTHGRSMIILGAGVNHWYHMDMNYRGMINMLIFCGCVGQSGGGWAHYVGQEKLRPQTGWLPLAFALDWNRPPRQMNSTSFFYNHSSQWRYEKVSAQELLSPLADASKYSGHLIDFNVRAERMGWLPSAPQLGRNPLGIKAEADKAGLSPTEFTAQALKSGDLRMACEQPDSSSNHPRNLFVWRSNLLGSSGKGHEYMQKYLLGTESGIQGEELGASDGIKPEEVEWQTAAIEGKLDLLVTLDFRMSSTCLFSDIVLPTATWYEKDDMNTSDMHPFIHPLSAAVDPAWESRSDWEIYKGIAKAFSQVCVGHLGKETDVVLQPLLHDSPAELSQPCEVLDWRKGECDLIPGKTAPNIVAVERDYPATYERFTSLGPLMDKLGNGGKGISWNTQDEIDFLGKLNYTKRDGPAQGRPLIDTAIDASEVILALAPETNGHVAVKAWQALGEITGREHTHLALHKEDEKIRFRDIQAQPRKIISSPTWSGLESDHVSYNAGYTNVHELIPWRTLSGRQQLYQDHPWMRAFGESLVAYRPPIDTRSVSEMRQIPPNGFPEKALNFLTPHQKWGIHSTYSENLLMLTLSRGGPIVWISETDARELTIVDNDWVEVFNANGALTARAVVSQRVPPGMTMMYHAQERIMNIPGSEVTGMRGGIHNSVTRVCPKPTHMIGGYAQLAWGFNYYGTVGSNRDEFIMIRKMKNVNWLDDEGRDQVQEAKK
UniProt P27253: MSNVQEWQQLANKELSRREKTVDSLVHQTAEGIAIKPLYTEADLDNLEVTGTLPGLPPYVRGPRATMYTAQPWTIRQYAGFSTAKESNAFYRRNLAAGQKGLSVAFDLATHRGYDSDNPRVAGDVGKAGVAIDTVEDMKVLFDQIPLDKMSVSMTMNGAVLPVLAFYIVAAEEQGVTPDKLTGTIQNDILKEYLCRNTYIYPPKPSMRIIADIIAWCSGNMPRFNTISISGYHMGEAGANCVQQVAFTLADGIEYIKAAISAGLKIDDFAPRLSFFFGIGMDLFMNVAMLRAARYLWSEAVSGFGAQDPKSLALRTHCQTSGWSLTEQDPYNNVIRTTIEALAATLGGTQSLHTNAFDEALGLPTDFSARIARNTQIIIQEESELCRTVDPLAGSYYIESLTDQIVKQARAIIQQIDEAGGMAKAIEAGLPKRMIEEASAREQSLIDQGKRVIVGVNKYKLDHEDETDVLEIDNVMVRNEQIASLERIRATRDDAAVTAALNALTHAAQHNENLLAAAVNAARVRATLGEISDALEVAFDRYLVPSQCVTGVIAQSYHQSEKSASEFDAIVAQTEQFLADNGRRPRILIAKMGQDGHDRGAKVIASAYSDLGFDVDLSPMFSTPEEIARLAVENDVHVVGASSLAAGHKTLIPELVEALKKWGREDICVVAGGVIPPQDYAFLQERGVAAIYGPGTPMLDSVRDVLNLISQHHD

Compound: Nc1ncnc2c1ncn2[C@@H]1O[C@H](COP(=O)(O)OP(=O)(O)OP(=O)(O)O)[C@@H](O)[C@H]1O [adenosine 5'-triphosphate]
Test: log2 fold change of tryptic peptide abundance, ligand vs vehicle (limited proteolysis) (log2 ratio); higher = more trypsin-susceptible (destabilized)
Conditions: ligand concentration: 5 mM; sample: E. coli desalted lysate; replicate design: treated before aliquoting
Procedure: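 HT-PELSA: desalted E. coli K-12 BW25113 lysate (with 12 mM MgCl2) incubated with 5 mM ATP (pH 7) or water for 30 min at 25 C, then a 4 min trypsin pulse at 22 C. Peptides were quantified by DIA-MS (4 replicates). Value is the peptide log2 fold change (treated/control); negative = stabilized. Scale: negative = ligand-stabilized region.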
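Also: lysate desalted by size exclusion to strip endogenous ATP, peptide intensities built from DIA-NN precursor signals, and peptides missing any value discarded before comparison.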

Row | Target | log2 fold change
1 | UniProt P21367 (peptide sequence: DIEPDKFK, peptide start residue: 30) | -0.177
2 | UniProt P30140 (peptide sequence: LRPCTGGIEPASIMDER, peptide start residue: 262) | -0.443
3 | UniProt P21361 (peptide sequence: KGGQHSGGNFKNDPQR, peptide start residue: 24) | 0.171
4 | UniProt P27836 (peptide sequence: KKYPQAQVSR, peptide start residue: 81) | 0.46
5 | UniProt P22731 (peptide sequence: TTLLGTLCGDPR, peptide start residue: 45) | -0.742
6 | UniProt P25534 (peptide sequence: KAPGVTLHCPDR, peptide start residue: 121) | 1.3
7 | UniProt P27375 (peptide sequence: LHVTSAYPISEK, peptide start residue: 142) | 0.338
8 | UniProt P27127 (peptide sequence: LHVLGDGSDFEK, peptide start residue: 211) | -0.0392
9 | UniProt P24252 (peptide sequence: VVVLLSHPANPR, peptide start residue: 79) | 0.531
10 | UniProt P22524 (peptide sequence: STGSDVDRQKLQEK, peptide start residue: 141) | -0.316
11 | UniProt P27242 (peptide sequence: TPEYPSHLIWSPNHHK, peptide start residue: 310) | 0.592
12 | UniProt P28305 (peptide sequence: LQDACQR, peptide start residue: 46) | 0.488
13 | UniProt P24171 (peptide sequence: HYQSGAAMPDELQQK, peptide start residue: 521) | 0.385
14 | UniProt P19930 (peptide sequence: IPAYLSAK, peptide start residue: 84) | 0.084
15 | UniProt P24241 (peptide sequence: KYQSVQPTVAK, peptide start residue: 470) | -0.284
16 | UniProt P24555 (peptide sequence: VMASQQALQDR, peptide start residue: 50) | 0.229
17 | UniProt P18811 (peptide sequence: VNAAIEELGFVR, peptide start residue: 41) | -0.293
18 | UniProt P24175 (peptide sequence: VEQHFSR, peptide start residue: 393) | -0.453
19 | UniProt P26458 (peptide sequence: RNENELY, peptide start residue: 372) | 0.333

Row | Target | log2 fold change
20 | UniProt P28249 (peptide sequence: AAENFDNVTR, peptide start residue: 483) | 1.03
21 | UniProt P23843 (peptide sequence: NMYIVKH, peptide start residue: 537) | 0.756
22 | UniProt P16681 (peptide sequence: ISFGEMPK, peptide start residue: 32) | -0.417
23 | UniProt P30859 (peptide sequence: YTSVDQLK, peptide start residue: 118) | -0.294
24 | UniProt P25737 (peptide sequence: TTEAPGLRR, peptide start residue: 7) | 0.107
25 | UniProt P21169 (peptide sequence: IHEGESGR, peptide start residue: 403) | -0.909
26 | UniProt P25549 (peptide sequence: SDKPFFLYYGTR, peptide start residue: 289) | 0.23
27 | UniProt P27245 (peptide sequence: LIHMVNQK, peptide start residue: 17) | 0.371
28 | UniProt P23878 (peptide sequence: EIVTAELIER, peptide start residue: 230) | 0.241
29 | UniProt P16528 (peptide sequence: KPAVATAPATGQVQSLTR, peptide start residue: 12) | -0.619
30 | UniProt P26648 (peptide sequence: ASVWGINGR, peptide start residue: 65) | -0.107
31 | UniProt P27294 (peptide sequence: NGMSGVQCVER, peptide start residue: 29) | -0.154
32 | UniProt P25906 (peptide sequence: HVAITVLR, peptide start residue: 36) | -0.283
33 | UniProt P30749 (peptide sequence: DEDGAVVTFTGK, peptide start residue: 26) | 0.457
34 | UniProt P23890 (peptide sequence: SIVTNHVVTQSISELRK, peptide start residue: 61) | 0.0691
35 | UniProt P19319 (peptide sequence: GETFADGHGQVMHSNR, peptide start residue: 15) | 0.883
36 | UniProt P19318 (peptide sequence: SQTVEGVTDTR, peptide start residue: 418) | 0.356
37 | UniProt P30128 (peptide sequence: DYISIDSPMAR, peptide start residue: 116) | 0.169
38 | UniProt P27253 (peptide sequence: NEQIASLER, peptide start residue: 479) | -0.123

2 entries from above, field by field:
UniProt P30749 (peptide sequence: DEDGAVVTFTGK, peptide start residue: 26)
  log2 fold change: 0.457
UniProt P27253 (peptide sequence: NEQIASLER, peptide start residue: 479)
  log2 fold change: -0.123
